Laboratory results from PubChem BioAssay AID687031 (Broad Institute, 2013).
Among all 1,400 compounds or so, about 50 (4%) were called active.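 The calls were made as follows: active = fitted curve reaches 30% CPE protection at or below the top valid dose, with every test run called active; inconclusive = test runs disagree, some active and some not; inactive = every test run inactive, including effects in the wrong direction.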 Some of the results follow. Entries with a potency or affinity are not part of this list.

Experiment: Dengue virus 2 cytopathic effect protection, dose response, BHK-21 cells, ATP luminescence, cherry-pick (AID 687031);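 also: 0% = infected DMSO wells and 100% = uninfected cell wells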
Conditions: BHK-21 DENV2 CPE protection, 5 d; at 19.5 µM (top of the series) unless noted

CPE protection (higher = active), inactive:
COc1ccc(COC(=O)C2=C(C)NC(=O)NC2c2ccccc2F)cc1 (stereo unspecified) 4.68%
Brc1ccc(-c2nnc(-c3cccnc3)o2)cc1 13.5%
O=C(C1CC1)N1[C@@H](CO)[C@@H]2c3ccccc3NC[C@@H]21 -11.3%
CC(C)(C)OC(=O)N[C@H]1C=C[C@@H](CC(=O)OCC(F)(F)F)C1 12.1%
C[C@H]1CCCCO[C@@H](CN(C)C(=O)Nc2cccc3ccccc23)[C@@H](C)CN([C@@H](C)CO)C(=O)c2cc(NC(=O)Cc3ccccc3)ccc2O1 -8.48%
Cc1ccc2oc(C(=O)N(Cc3ccncc3)CC3CCCO3)c(C)c2c1 (stereo unspecified) -4.69%
CCCNC(=O)N1[C@H](CO)[C@@H](c2ccccc2)C12CN(C(=O)C1CCCCC1)C2 -14.2% [at 21 µM]
O=C(OCc1ccccc1)N1CCCC2CC1c1ccccc12 (stereo unspecified) 2.88%
C[C@H]1CN([C@@H](C)CO)C(=O)c2cc(NC(=O)CCCN(C)C)ccc2O[C@@H]1CN(C)S(=O)(=O)c1ccc(Cl)cc1 -11.3% [at 21 µM]
Cc1cccc(OCC(=O)NNC(=O)C2CCCCC2C(=O)O)c1 (stereo unspecified) -36.8%
C[C@@H]1CN([C@H](C)CO)C(=O)c2cc(NC(=O)Nc3ccc(C(F)(F)F)cc3)ccc2O[C@@H](C)CCCCO[C@@H]1CN(C)C(=O)Cc1ccccc1 14.1%
N#Cc1cc2cc3c(cc2nc1Cl)OCCO3 -12.1%
COc1cccc(-c2nc3nc(C)cc(C)n3c2NC2CCCC2)c1 -12.1%
Cc1ccc(C)c(NC(=O)CN2C(=O)C3CC=CCC3C2=O)c1 (stereo unspecified) 22.6%
COc1ccc2c3c([nH]c2c1)[C@H](CO)N(C(C)=O)CC31CN(C(=O)c2cccc(F)c2)C1 5.35%
CN(CC(=O)Nc1ccc(F)c(F)c1F)c1ncnc2sccc12 8.14%
O=C(N[C@@H]1C=C[C@H](CC(=O)N2CCc3ccccc3C2)O[C@@H]1CO)C1CCC1 -5.94%
COc1ccc(-c2cc(NC=O)c3ncc(-c4cc(OC)c(OC)c(OC)c4)n3c2)c(OC)c1 -34.4%
O=C(c1cccnc1)N1CC2(C1)[C@H](c1ccccc1)[C@@H](CO)N2Cc1ccccc1 -10.3% [at 21 µM]
C[C@@H](NC(=O)c1nc[nH]c1C(=O)N(C)Cc1ccccc1)c1ccccc1 -2.86%
NC(=O)C1CCN(c2nc(-c3ccccc3Br)cs2)CC1 7.15%
OC(COC(c1ccc(Cl)cc1)c1ccc(Cl)cc1)CN1CCN(c2ccccn2)CC1 (stereo unspecified) -5.94%
COc1ccc(-c2ccccc2)cc1NC(=O)c1cccs1 -7.17%
COc1ccc(CCN2C(=O)CSCC2(C)C(=O)Nc2ccc3c(c2)OCCO3)cc1OC (stereo unspecified) 7.48%
CC1(C(=O)NCc2ccccc2)CN(S(C)(=O)=O)CC(=O)N1CCc1ccccc1F (stereo unspecified) 12.1%
COc1ccc(-n2nnnc2C2(C)CCC(=O)N2Cc2ccccc2)cc1 (stereo unspecified) 22.1%
Cc1c(Cl)cccc1NC(=O)CNC(=O)C1CC(=O)N(C2CCCC2)C1 (stereo unspecified) -7.21%
COCCNc1nc(Nc2ccccc2Cl)c2sccc2n1 -22.3% [at 10 µM]
COc1ccc(N2CCN(Cc3nc4c(c(=O)[nH]c(=O)n4C)n3Cc3cccc(Cl)c3)CC2)cc1 -20.9%
CCc1ccc(C(=O)NNC(=O)c2c(CC)noc2C)cc1 -5.06%
COCCNC(=O)C[C@@H]1C[C@H]2c3cc(NC(=O)Nc4ccc(OC)cc4)ccc3O[C@H]2[C@@H](CO)O1 -17.4%
CCOc1ccc(N(CC(=O)NC2CCCC2)S(=O)(=O)c2c(C)[nH]c(=O)[nH]c2=O)cc1 -1.05%
COC(=O)c1cn(C(=O)c2ccc(OC)c(OC)c2)c2ccccc12 0.993%
CCCCNC(=O)c1ccc(NS(=O)(=O)c2ccc3[nH]c(=O)[nH]c3c2)cc1 12.1%
Cc1ccc(-c2nc3ccccc3n2C(C(=O)NC(C)(C)C)C2CC2)cc1 (stereo unspecified) -3.07%
CCCCNC(=O)c1cc2c(C)cc(C)cc2[nH]1 16.3%
Cc1ccccc1CSc1ccc(-c2ccc3c(c2)OCO3)nn1 5.16%
CCN1CCN(CC(=O)Nc2nc3ccc(C)cc3s2)CC1 -14% [at 10 µM]
Cc1cccc(N(CC(=O)NC2CC2)S(=O)(=O)c2ccc(Cl)cc2)c1 -5.57%
Cc1ccc(NC(=O)C(=O)NCC2CCCN2S(=O)(=O)c2cccs2)cc1 (stereo unspecified) 1.19%
C[C@@H]1CCCCO[C@H](CN(C)S(=O)(=O)c2ccc(Cl)cc2)[C@H](C)CN([C@H](C)CO)C(=O)c2cc(N(C)C)ccc2O1 -5.57%
C[C@@H]1CN([C@H](C)CO)C(=O)c2cc(NC(=O)c3ccccc3)ccc2O[C@@H](C)CCCCO[C@@H]1CN(C)Cc1ccc(C(=O)O)cc1 -1.52%
COC(=O)C[C@H]1CC[C@H]2[C@@H](COc3ccc(NC(=O)c4cnccn4)cc3C(=O)N2C)O1 8.53%
Cc1ccc(NC(=O)Cn2cccc2C2=NC(c3ccccc3)CO2)cc1C (stereo unspecified) -4.2%
CCOC(=O)C[C@H]1c2ccccc2S(=O)(=O)N1c1ccccc1 -19.3%
N#CC(Cc1ccccc1OC(F)F)c1nc2ccccc2[nH]1 (stereo unspecified) 18.7%
O=C(Nc1ccc(F)cc1)C1CCCN(S(=O)(=O)c2ccc3[nH]c(=O)ccc3c2)C1 (stereo unspecified) -1.83%
COCC(=O)Nc1ccc2c(c1)C(=O)N(C)[C@@H]1CC[C@@H](CC(=O)NCC(F)(F)F)O[C@@H]1CO2 11.1%
CCCCN(C(C)=O)c1ccc2c(c1)C1CC2CCN1Cc1ccccc1 (stereo unspecified) -36.7%
CC(NC(=O)CN1CCN(c2cccc(Cl)c2)CC1)c1ccccc1 (stereo unspecified) -0.469%
Cc1ccc(C)c(N2CCN(C(=O)CCc3nc(-c4ccccc4)no3)CC2)c1 -15.2%

Quoted at random: three entries already listed
CPE protection (higher = active), inactive:
COc1ccc(-c2cc(NC=O)c3ncc(-c4cc(OC)c(OC)c(OC)c4)n3c2)c(OC)c1 -34.4%
CCCCN(C(C)=O)c1ccc2c(c1)C1CC2CCN1Cc1ccccc1 (stereo unspecified) -36.7%
O=C(OCc1ccccc1)N1CCCC2CC1c1ccccc12 (stereo unspecified) 2.88%
